Assay results published in article PMC6718413, “Improving mass spectrometry analysis of protein structures with arginine-selective chemical cross-linkers” (Nature Communications, 2019).
Results are given in words; binding and its absence hold for the method and conditions named. Some entries that bind do so weakly or less than the wild type.

Protein sequences, listed by entry. Tags and fused reporters are not part of them. Residues count along the entry.
N-terminal domains (NTD) of alpha-kinase 1 (ALPK1), residues 1-473 (Q96QP1, residues 1-473): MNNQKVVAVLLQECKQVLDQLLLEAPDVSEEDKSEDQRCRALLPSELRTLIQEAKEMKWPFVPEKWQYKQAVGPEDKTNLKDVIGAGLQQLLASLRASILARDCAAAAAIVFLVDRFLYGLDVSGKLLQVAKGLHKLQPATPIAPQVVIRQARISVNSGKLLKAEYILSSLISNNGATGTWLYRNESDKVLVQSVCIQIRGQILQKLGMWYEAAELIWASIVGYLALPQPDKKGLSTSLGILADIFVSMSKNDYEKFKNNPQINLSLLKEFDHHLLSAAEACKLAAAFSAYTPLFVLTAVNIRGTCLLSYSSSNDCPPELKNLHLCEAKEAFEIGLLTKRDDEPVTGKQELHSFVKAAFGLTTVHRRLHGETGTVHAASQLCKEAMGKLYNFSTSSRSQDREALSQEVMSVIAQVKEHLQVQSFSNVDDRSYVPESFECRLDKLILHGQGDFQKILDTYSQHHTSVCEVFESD
ALPK1 kinase domain (KD), residues 959-1244 (Q96QP1, residues 959-1244): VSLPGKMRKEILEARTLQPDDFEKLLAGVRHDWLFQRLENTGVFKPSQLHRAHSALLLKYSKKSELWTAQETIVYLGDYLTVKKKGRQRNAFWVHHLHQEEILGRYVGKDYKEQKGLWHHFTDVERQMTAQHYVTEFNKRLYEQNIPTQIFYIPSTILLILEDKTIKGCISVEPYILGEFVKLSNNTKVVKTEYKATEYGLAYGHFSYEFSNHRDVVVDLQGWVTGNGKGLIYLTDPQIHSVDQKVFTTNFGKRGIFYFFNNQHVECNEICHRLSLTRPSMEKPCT

How the values were obtained:
[1] = target: N-terminal domains (NTD) of alpha-kinase 1 (ALPK1), residues 1-473 (human) (UniProt Q96QP1); assay: cross-linking; ALPK1 NTD-KD complex (0.6 μg/μl) with 0.1, 0.2 mM KArGO at RT for 15 min; LC-MS/MS; compared with NTD alone; both purified
[2] = target: N-terminal domains (NTD) of alpha-kinase 1 (ALPK1), residues 1-473 (human) (UniProt Q96QP1); assay: co-purification; GST-ALPK1 (1–473) and ALPK1 (959–1244) co-expressed in E. coli; glutathione sepharose, GST removed by HRV 3C, gel filtration
[3] = target: T1, C-terminal domain (CTD) of Utp5 (residue 433-591) (UniProt Q04177); assay: cross-linking; UtpA sub-complex (0.5 μg/μl) with 0.1, 0.2 and 0.4 mM KArGO in 50 mM borate, 50 mM HEPES (pH 7.5) at RT for 15 min; LC-MS/MS; both purified
T1 sequence: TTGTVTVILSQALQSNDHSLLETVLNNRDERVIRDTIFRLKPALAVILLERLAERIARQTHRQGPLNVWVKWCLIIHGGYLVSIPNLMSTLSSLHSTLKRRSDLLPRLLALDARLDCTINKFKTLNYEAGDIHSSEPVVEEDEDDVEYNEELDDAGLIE

[4] = target: T1, C-terminal domain (CTD) of Utp5 (residue 433-591); assay: co-purification; two His6-Smt3-tagged CTDs co-expressed; HisTrap, tags cleaved with Ulp1, heparin column, second HisTrap pass
[5] = target: T2, CTD of Utp9 (residue 361-569) (UniProt P38882); assay: as above
T2 sequence: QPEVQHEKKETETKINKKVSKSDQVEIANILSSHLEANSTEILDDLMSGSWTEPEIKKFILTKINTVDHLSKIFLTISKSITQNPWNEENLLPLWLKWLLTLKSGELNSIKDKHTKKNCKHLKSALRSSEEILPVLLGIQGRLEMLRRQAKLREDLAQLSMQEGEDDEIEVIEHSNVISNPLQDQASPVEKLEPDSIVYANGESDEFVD

[6] = target: T3, CTD of Utp15 (residue 380-513) (UniProt Q04305); assay: cross-linking; UtpA sub-complex (0.5 μg/μl) with 0.1, 0.2 and 0.4 mM KArGO in 50 mM borate, 50 mM HEPES (pH 7.5) at RT for 15 min; LC-MS/MS; both purified
T3 sequence: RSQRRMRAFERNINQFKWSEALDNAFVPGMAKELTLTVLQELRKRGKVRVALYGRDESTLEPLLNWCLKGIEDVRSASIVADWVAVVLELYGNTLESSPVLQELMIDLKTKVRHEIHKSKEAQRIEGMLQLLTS

[7] = target: T3, CTD of Utp15 (residue 380-513); assay: cross-linking; UtpA sub-complex (0.5 μg/μL) with 0.5 mM BS^3 at RT for 45 min, quenched with 20 mM NH4HCO3; LC-MS/MS; both purified

## ALPK1 kinase domain (KD), residues 959-1244 (from UniProt Q96QP1 959-1244) (domain or fragment)
[1]
  binding: binds
[2]
  binding: binds

B1: CTD of Utp15 (residue 380-513) (domain or fragment, UniProt Q04305 380-513, looked up)
chain: RSQRRMRAFERNINQFKWSEALDNAFVPGMAKELTLTVLQELRKRGKVRVALYGRDESTLEPLLNWCLKGIEDVRSASIVADWVAVVLELYGNTLESSPVLQELMIDLKTKVRHEIHKSKEAQRIEGMLQLLTS
notes: Utp15, subunit of UtpA, residues 380-513; The tags were cleaved with Ulp1; also called Utp15 CTD
[3]
  binding: binds
[4]
  binding: binds

B2: CTD of Utp8 (residue 518-713) (domain or fragment, UniProt P53276 518-713)
chain: DYPKTLTFLLTHPLFPLSRTRNLLSLLRDQPRLFKQAIVTCPNLPLNELLEELFSIRNRELLLDISFRILQDFTRDSIKQEMKKLSKLDVQNFIEFITSGGEDSSPECFNPSQSTQLFQLLSLVLDSIGLFSLEGALLENLTLYIDKQVEIAERNTELWNLIDTKGFQHGFASSTFDNGTSQKRALPTYTMEYLDI
[5]
  binding: binds

B3: CTD of Utp9 (residue 361-569) (domain or fragment, UniProt P38882 361-569)
chain: QPEVQHEKKETETKINKKVSKSDQVEIANILSSHLEANSTEILDDLMSGSWTEPEIKKFILTKINTVDHLSKIFLTISKSITQNPWNEENLLPLWLKWLLTLKSGELNSIKDKHTKKNCKHLKSALRSSEEILPVLLGIQGRLEMLRRQAKLREDLAQLSMQEGEDDEIEVIEHSNVISNPLQDQASPVEKLEPDSIVYANGESDEFVD
[3]
  binding: binds
[6]
  binding: binds
[7]
  binding: binds
